Data as given in PubChem BioAssay AID743454 (Peter MacCallum Cancer Centre, 2014).

Aim: 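Genes whose loss kills vorinostat-resistant colon cancer cells under vorinostat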 (primary screen)
Cells: human HCT116-VR colon cancer cells, selected for vorinostat resistance
Reagent: siRNA pool against human genes, 40 nM siRNA pool
Time to read-out: vorinostat for 24 h, read-out about 72 h after transfection
Challenge: vorinostat at 2.5 µM final
Measurement: 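Cell viability by CellTiter-Fluor and caspase 3/7 activity by luminescence, each scaled to mock wells per plate, duplicates averaged, then robust z-scored over all plates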
Direction: viability robust z-score: higher = more viable cells than screen typical; caspase robust z-score: higher = more caspase 3/7 activity than screen typical
Call rule: 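a knock-down is a hit when classed RV1 or RV2 for lowered viability, or CA1 or CA2 for caspase activation; those lethal without drug were dropped; hits were retested singly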
The deposit covers about 18,000 reagents; this is a part drawn at random. 450 of all reagents (2.5%) count as active. 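Single biological run; no consistent viability z cut-off exists, so the class columns, not z-scores, define the calls.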 A number with no mark means an inactive call.

The opening 7 records as a preview:
| gene | viability hit class | caspase hit class | viability robust z-score | caspase robust z-score |
| --- | --- | --- | --- | --- |
| INTS6L | no change (active) | CA2 (caspase activation) | -1.62 | 5.4 |
| LCA5L | no change | no change | 0.81 | -0.65 |
| CHCHD5 | no change | no change | -0.1 | 1.64 |
| PLAC9 | no change | no change | 1.54 | -0.01 |
| FAM222A | no change | no change | -1.63 | 0.86 |
| TIMM50 | no change | no change | 0.66 | 0.99 |
| CATSPERG | no change | no change | -1.29 | -1.12 |

The list itself, from the start:
| gene | viability hit class | caspase hit class | viability robust z-score | caspase robust z-score |
| --- | --- | --- | --- | --- |
| INTS6L | no change (active) | CA2 (caspase activation) | -1.62 | 5.4 |
| LCA5L | no change | no change | 0.81 | -0.65 |
| CHCHD5 | no change | no change | -0.1 | 1.64 |
| PLAC9 | no change | no change | 1.54 | -0.01 |
| FAM222A | no change | no change | -1.63 | 0.86 |
| TIMM50 | no change | no change | 0.66 | 0.99 |
| CATSPERG | no change | no change | -1.29 | -1.12 |
| EIF1AD | no change | no change | 1.38 | 0.66 |
| HOXB5 | no change | no change | -0.68 | -0.89 |
| CNOT12 | no change | no change | -2.35 | 0.49 |
| NRSN1 | no change | no change | 0.67 | -0.88 |
| FAM171B | no change | no change | -0.2 | -0.54 |
| RAB30 | no change | no change | 1.22 | -0.63 |
| LRRC73 | no change | no change | 0.6 | -0.75 |
| CASQ1 | no change | no change | -1.56 | -0.06 |
| RACGAP1 | no change | no change | -0.38 | 1.92 |
| USP51 | no change | no change | 0.1 | -0.07 |
| TAP2 | no change | no change | 1.16 | -0.02 |
| L1CAM-AS1 | no change | no change | -0.72 | 0.14 |
| GAGE7 | no change | no change | -0.5 | -0.12 |
| FAM133A | no change | no change | 0.21 | -1.02 |
| SGIP1 | no change | no change | 0.96 | 0.02 |
| WDR13 | no change | no change | -0.4 | 0.66 |
| RNF170 | no change | no change | -0.1 | -0.15 |
| NUSAP1 | no change | no change | 0 | -0.65 |
| ANXA5 | no change | no change | 1.12 | -0.23 |
| MSRB2 | no change | no change | 0.8 | -0.22 |
| HAAO | no change | no change | 0.88 | -0.73 |
| CFAP58 | no change | no change | 0.04 | 1.5 |
| FOXA2 | no change | no change | -1.19 | -0.23 |
| CLRN3 | no change | no change | -0.36 | -0.18 |
| YPEL4 | no change | no change | -0.26 | -0.8 |
| MNX1 | no change | no change | -0.88 | 0.78 |
| TRIM33 | no change | no change | 0.18 | -0.66 |
| HACD3 | no change | no change | 0.23 | -0.12 |
| DSCR9 | no change | no change | -2.49 | -1.34 |
| IL31 | no change | no change | 1.36 | 2.79 |
| NSG2 | no change | no change | 0.26 | -0.02 |
| IRF2BP2 | no change | no change | -0.44 | 2.86 |
| APLF | no change | no change | 0.19 | 1.64 |
| SP1 | no change | no change | -2.12 | 4.72 |
| BLOC1S3 | no change | no change | 0.97 | 1.26 |
| PPM1L | no change | no change | 1.29 | 0.08 |
| PDSS1 | no change | no change | -0.89 | 0.54 |
| DUSP11 | no change | no change | 0.24 | 2.86 |
| GAL3ST1 | no change | no change | -0.34 | 1.1 |
| PRSS36 | no change | no change | 0.48 | -0.44 |
| CCR9 | no change | no change | -1.02 | 0.61 |
| SEL1L3 | no change | no change | 1.2 | -0.24 |
| TMEM160 | no change | no change | 1.26 | -0.92 |
| OR8H3 | no change | no change | -0.34 | 1.23 |
| ZBED10P | no change | no change | 0.9 | 1.83 |
| ADIG | no change | no change | 1.56 | -0.71 |
| SRF | no change | no change | 0.29 | 1.33 |
| PSMD6 | no change | no change | -3.92 | 1.98 |
| MSRB3 | no change | no change | -1.67 | 0.01 |
| AZI2 | no change | no change | 0.93 | -0.86 |
| SRRM3 | no change | no change | 1.06 | 0.36 |
| NME5 | no change | no change | -0.24 | 2.31 |
| UTP3 | RV2 (reduced viability) (active) | no change | -3.12 | 3.12 |
| WDR33 | no change | no change | -0.1 | -0.08 |
| CRP | no change | no change | 1.72 | -0.22 |
| KIF1A | no change | no change | -0.03 | 0.08 |
| SPRED1 | no change | no change | 0.87 | -0.5 |
| NDUFS4 | no change | no change | 0.08 | 1.42 |
| LCA5 | no change | no change | -1 | 1.21 |
| FATE1 | no change | no change | -3.43 | 1.27 |
| SLCO1B3 | no change | no change | 0.24 | 0.4 |
| FNDC7 | no change | no change | -0.3 | -0.86 |
| CD84 | no change | no change | 0.26 | -0.52 |
| CERT1 | no change | no change | -0.6 | 1.86 |
| AAR2 | no change | no change | 1 | -0.86 |
| SPINK9 | no change | no change | -0.98 | 0.05 |
